Publication doi:10.1101/2025.09.29.679124 (bioRxiv, 2025)
Where two headings read alike, the source gives them in different places. Results are given in words; binding and its absence hold for the method and conditions named. Binding can be weak; no strength is given. Where a sequence is shown, tags or fusion partners need not be part of it.

Legend:
Assay in all cases: pull-down
[1] = target: MBP-His-OsSMAX1-D2 (638-1041) (rice (Oryza sativa))
[2] = target: MBP-His-OsSMAX1-D1M (218-541) (rice (Oryza sativa))
[3] = target: MBP-His-OsSMAX1-D2 (638-1041) (rice (Oryza sativa)); remark: listed apart in the source
[4] = target: MBP-His-tagged full-length OsSMAX1 (residues 2-1041) (rice (Oryza sativa))
[5] = target: MBP-His-tagged full-length OsSMAX1 (residues 2-1041) (rice (Oryza sativa)); remark: listed apart in the source
[6] = target: MBP-His-OsSMAX1-D1M (218-541) (rice (Oryza sativa)); remark: listed apart in the source

B1: GST-D14 (50-318) (receptor, rice (Oryza sativa), UniProt Q10QA5 50-318, looked up)
chain: APSGAKLLQILNVRVVGSGERVVVLSHGFGTDQSAWSRVLPYLTRDHRVVLYDLVCAGSVNPDHFDFRRYDNLDAYVDDLLAILDALRIPRCAFVGHSVSAMIGILASIRRPDLFAKLVLIGASPRFLNDSDYHGGFELEEIQQVFDAMGANYSAWATGYAPLAVGADVPAAVQEFSRTLFNMRPDISLHVCQTVFKTDLRGVLGMVRAPCVVVQTTRDVSVPASVAAYLKAHLGGRTTVEFLQTEGHLPHLSAPSLLAQVLRRALARY
binding [1]: binds

B2: Glutathione-S-transferase (GST)-tagged D14L (receptor, rice (Oryza sativa), UniProt Q10J20 1-271, looked up)
chain: MGIVEEAHNLRVVGEGKRGVIVLAHGFGTDQSVWKHLVPHLVADYRVVLFDTMGAGPTNPDYFDFSRYATLEGYALDLLAILQELRVASCIYVGHSVSAVIGAIASISRPDLFSKLVLLSASPRYLNDVDYYGGFEQEDLDELFEAMGSNYKAWCSGFAPLCVGGDMESVAVQEFSRTLFNIRPDIALSVAQTIFQSDVRSLLPLVTVPCHIVQSTKDLAVPVVVSEYLHKHLGGDSIVEVMPSEGHLPQLSSPDIVIPVLLRHIQHDIAV
binding [2]: binds
binding [3]: binds weakly
binding [4]: binds
binding [5]: binds
binding [6]: binds
binding [1]: binds
